From publication PMC7110113, “Termination of non‐coding transcription in yeast relies on both an RNA Pol II CTD interaction domain and a CTD‐mimicking region in Sen1” (The EMBO Journal, 2020)

T1: Nrd1-TAP (S. cerevisiae) (UniProt P53617)
T1 sequence: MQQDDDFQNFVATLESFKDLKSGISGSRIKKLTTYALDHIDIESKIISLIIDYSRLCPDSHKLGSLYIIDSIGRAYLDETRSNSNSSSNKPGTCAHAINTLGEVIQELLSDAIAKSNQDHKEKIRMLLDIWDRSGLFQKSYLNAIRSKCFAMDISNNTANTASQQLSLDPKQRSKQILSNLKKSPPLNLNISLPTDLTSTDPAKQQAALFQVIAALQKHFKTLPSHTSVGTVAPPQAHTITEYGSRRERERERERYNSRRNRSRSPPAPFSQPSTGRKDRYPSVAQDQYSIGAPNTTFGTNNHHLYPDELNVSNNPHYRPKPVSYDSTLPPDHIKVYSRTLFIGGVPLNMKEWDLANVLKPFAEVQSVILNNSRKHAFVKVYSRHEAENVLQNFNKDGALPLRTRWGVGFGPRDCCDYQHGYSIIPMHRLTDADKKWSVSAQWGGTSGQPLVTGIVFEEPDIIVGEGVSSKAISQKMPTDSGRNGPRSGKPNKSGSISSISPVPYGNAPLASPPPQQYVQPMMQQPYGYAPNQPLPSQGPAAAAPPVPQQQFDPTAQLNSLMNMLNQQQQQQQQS


Key:
Nrd1-TAP (S. cerevisiae) = molecular target: T1, Nrd1-TAP (S. cerevisiae); experiment: co-IP; TAP-tagged Nrd1 (wt or ∆CID) as bait on IgG Fast Flow Sepharose from yeast extracts; lysis buffer 10 mM sodium phosphate pH 7, 200 mM sodium acetate, 0.25% NP-40, 2 mM EDTA, 1 mM EGTA, 5% glycerol; Sen1 detected by blot (Fig 1A, 1C, EV3E)
[1] = molecular target: His6-GST-tagged Sen1 Cter ∆NIM (S. cerevisiae) (UniProt Q00416); experiment: pull-down; E. coli extract with His6-GST-Sen1 Cter (wt or ∆NIM) incubated with glutathione sepharose, then mixed with yeast extract expressing Sen1 TAP-Nter; extracts treated with 50 μg/ml RNase A; washed with lysis buffer (10 mM sodium phosphate pH 7, 200 mM sodium acetate, 0.25% NP-40); eluted with glutathione

Row | binding (Nrd1-TAP (S. cerevisiae)) | binding [1] | Molecule
1 | no binding | – | Sen1∆Cter (S. cerevisiae) (domain or fragment)
2 | binds weakly | – | Sen1∆NIM (from UniProt Q00416)
3 | – | binds | Sen1 TAP-Nter (domain or fragment, UniProt Q00416 1-975) MNSNNPDNNNSNNINNNNKDKDIAPNSDVQLATVYTKAKSYIPQIEQVYQGTNPNIQEAKLLGELLQVLAEVPKGTHLFCDPILEPISIFSLTIFSFNEEATATWLKNHFNPILSVCDKCILNFARGKCKMLQHFAIQRHVPHEHVAKFNDIVCQWRVEAVFPILRNISVNDNTGINITNEIETAMYECLCNPHMLRLNKQLKATFEAIFKFFYDTKHRLLDVTNPLSIKTFISGVIFCWCEGSKEENEWSRAFLKDLYSRNFHINLSNLTPDIIEEVYIHILFLQNPANWTEIVVSQFWSRLLPVFNLFDKDVFIEYFQVPKNVESLKKTFKFPLEPIFKMWYNHLSKSYHDKPLDFLLRGLTMFLNKFGSEFWSKIEPFTFHSILDIIFNRDSFPIKLIKIQDNPIVEHQTEVYFQLTGSVTDLLSWTLPFYHALSPSKRIQMVRKVSMAFLRIIANYPSLKSIPKACLMNSATALLRAVLTIKENERAMLYKNDEFETVLLTKTDSRALLNNPLIQDIIIRSASNPNDFYPGLGAASASVATSTMMVLAECIDFDILLLCHRTFKLYSGKPISEIPISTNVLENVTNKIDLRSFHDGPLLAKQLLVSLKNINGLLIVPSNTAVAEAHNALNQKFLLLSTRLMEKFADILPGQLSKILADEDASQGFWSCIFSSDKHLYQAATNILYNTFDVEGRLEGILAILNSNLTVNLKNINVMLQRLINCEFYEPCPRAVRVLMDVVSAFVDPISGVFANFQTLKSQNTEKEFLKFWESCWLFLDTIYKFTLKWASKYDYSELENFTKDTLDLSRSLVDSFREFSDILHDQTKNLLLNVLETFKNMLYWLRLSDEVLLESCVRLIISTSDLAHEKHVKVDDSLVEMMAKYASKAKRFSNKLTEQQASEILQKAKIFNKALTEEVATEAENYRKEKELSRLGKVIDLTDSVPASPSLSPSLSSTIASSSAESRADYLQRK

Results are given in words; binding and its absence hold for the method and conditions named. In cells and extracts the contact can be indirect. Binding can be weak; no strength is given.
